Drawing on article PMC12040988, “GET3B is involved in chloroplast biogenesis and interacts with the thylakoidal ALB3 and ALB4 insertases” (Plant Cell Reports, 2025), this text covers binding for two molecules.

By UniProt entry, the sequences of proteins in these tests, tags left out.
UniProt P40350: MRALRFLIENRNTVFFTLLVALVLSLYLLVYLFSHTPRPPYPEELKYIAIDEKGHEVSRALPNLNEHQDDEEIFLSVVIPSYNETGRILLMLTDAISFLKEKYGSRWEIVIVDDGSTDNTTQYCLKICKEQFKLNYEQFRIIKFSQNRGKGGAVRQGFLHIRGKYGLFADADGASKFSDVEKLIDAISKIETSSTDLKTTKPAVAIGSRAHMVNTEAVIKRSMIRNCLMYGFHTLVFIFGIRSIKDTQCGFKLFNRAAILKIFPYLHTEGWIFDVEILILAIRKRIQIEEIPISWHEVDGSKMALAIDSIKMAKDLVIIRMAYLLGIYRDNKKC

No constants are given. Whether binding was seen depends on the method and setting. Some entries that bind do so weakly or less than the wild type. For some assays here: Sequences can lack the tags named with a protein.

Assay in all cases: two-hybrid; split-ubiquitin yeast two-hybrid in DSY-1 yeast; Cub fusions as bait, NubG fusions as prey; growth on selective medium (-LTH, lacking Leu, Trp and His) against permissive medium (-LT)
In assay [1] the target is T1, Alb3-Cub (mature full-length Alb3 fused to the C-terminal half of ubiquitin) (Arabidopsis thaliana) (UniProt Q8LBP4).
T1 sequence: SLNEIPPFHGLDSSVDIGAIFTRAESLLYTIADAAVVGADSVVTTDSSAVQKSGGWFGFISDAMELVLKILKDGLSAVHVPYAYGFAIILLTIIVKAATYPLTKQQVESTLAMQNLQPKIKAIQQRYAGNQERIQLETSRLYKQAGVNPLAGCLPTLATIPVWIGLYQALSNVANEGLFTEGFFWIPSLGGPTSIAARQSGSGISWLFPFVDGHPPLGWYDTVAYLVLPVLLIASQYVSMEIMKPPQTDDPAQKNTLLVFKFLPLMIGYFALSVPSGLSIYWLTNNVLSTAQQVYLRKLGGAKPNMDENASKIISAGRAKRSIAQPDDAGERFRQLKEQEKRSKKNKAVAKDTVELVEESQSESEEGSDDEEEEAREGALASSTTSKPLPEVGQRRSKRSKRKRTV

The target of assay [2] is T2, Alb4-Cub (mature full-length Alb4 fused to the C-terminal half of ubiquitin) (Arabidopsis thaliana) (UniProt Q9FYL3).
T2 sequence: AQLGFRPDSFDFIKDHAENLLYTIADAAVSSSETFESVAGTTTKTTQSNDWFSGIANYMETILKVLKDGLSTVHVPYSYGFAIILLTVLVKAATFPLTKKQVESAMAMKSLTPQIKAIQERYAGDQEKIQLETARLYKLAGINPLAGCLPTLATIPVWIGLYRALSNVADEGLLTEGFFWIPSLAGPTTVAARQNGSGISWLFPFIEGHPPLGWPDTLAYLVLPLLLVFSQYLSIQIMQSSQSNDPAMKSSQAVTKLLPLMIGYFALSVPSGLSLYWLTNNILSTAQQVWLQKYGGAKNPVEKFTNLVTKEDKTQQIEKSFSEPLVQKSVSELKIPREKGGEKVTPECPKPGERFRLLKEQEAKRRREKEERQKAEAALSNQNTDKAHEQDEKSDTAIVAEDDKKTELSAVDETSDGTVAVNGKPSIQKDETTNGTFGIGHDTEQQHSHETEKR

A further assay has as its target T3, SecY1-Cub (UniProt Q38885).
T3 sequence: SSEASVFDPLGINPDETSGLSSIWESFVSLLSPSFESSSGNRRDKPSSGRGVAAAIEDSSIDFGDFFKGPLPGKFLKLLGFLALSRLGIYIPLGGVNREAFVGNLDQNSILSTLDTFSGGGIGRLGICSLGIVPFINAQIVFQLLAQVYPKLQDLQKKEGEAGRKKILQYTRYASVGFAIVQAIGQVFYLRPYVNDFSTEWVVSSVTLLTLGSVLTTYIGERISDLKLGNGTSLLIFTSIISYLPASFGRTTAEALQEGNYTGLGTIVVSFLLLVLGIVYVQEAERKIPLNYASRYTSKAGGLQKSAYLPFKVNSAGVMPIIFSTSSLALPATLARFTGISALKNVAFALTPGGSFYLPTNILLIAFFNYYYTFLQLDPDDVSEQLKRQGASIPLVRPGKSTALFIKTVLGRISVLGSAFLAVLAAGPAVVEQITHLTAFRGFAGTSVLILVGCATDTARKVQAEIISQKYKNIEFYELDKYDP

Regarding Alg5-NubG (from UniProt P40350 1-334), the binding result in assay [1] and in assay [2] was “no binding” throughout.

B1: NubG-Get3b (domain or fragment, UniProt A1L4Y1 68-411)
chain: VASPTETISEFDEMVSGTKRKYYMLGGKGGVGKTSCAASLAVRFANNGHPTLVVSTDPAHSLSDSFAQDLTGGMLVPVEGPEAPLFALEINPEKAREEFRSASQMNGGTGVKDFMDGMGLGMLVEQLGELKLGELLDTPPPGLDEAIAISKVIQFLESPEYNMFTRIVFDTAPTGHTLRLLSLPDFLDASIGKILKLRQKITSATSAIKSVFGKEEKGPDAADKLEKLRERMVKVRELFRDTESTEFVIVTIPTVMAVSESSRLSASLKKESVPVKRLIVNQLLPPSSSDCKFCSIKRKDQMRALDMIREDSELSALTLMEAPLVDMEIRGVPALRFLGDIIWK
B1: the binding result in assay [1] is “binds”; in assay [2], “binds”; in the assay with SecY1-Cub, “no binding”.
